# Laboratory results: PMC7032568
# T1: YFP-tagged DDX11 (human) (UniProt Q96FC9)
# T1 sequence: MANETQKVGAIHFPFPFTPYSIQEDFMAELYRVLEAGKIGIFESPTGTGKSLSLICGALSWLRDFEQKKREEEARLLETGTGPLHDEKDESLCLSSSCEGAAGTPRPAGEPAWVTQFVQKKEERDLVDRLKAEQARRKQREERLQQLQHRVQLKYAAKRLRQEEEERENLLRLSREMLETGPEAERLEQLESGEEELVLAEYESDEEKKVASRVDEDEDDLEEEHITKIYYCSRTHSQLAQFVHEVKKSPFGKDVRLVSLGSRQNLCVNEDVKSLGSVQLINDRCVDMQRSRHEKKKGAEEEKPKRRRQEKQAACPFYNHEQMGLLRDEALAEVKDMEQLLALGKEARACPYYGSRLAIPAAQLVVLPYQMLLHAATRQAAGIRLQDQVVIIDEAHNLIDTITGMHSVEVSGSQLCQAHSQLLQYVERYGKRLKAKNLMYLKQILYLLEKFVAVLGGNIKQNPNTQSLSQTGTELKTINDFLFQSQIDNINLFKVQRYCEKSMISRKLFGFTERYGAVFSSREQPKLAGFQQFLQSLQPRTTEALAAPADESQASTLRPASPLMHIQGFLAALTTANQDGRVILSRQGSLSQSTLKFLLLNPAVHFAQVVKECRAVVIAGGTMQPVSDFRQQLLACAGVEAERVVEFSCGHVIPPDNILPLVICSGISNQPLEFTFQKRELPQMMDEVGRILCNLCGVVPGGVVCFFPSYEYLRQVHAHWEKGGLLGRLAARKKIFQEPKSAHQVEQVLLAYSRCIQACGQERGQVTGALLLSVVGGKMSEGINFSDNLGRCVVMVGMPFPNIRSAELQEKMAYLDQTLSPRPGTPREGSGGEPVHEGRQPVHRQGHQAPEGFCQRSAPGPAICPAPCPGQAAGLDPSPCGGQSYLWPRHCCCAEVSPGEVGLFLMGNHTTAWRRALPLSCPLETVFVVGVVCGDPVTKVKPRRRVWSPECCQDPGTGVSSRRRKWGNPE
# B1: WDHD1 (endogenous) (protein, UniProt O75717 1-1129)
# chain: MPATRKPMRYGHTEGHTEVCFDDSGSFIVTCGSDGDVRIWEDLDDDDPKFINVGEKAYSCALKSGKLVTAVSNNTIQVHTFPEGVPDGILTRFTTNANHVVFNGDGTKIAAGSSDFLVKIVDVMDSSQQKTFRGHDAPVLSLSFDPKDIFLASASCDGSVRVWQISDQTCAISWPLLQKCNDVINAKSICRLAWQPKSGKLLAIPVEKSVKLYRRESWSHQFDLSDNFISQTLNIVTWSPCGQYLAAGSINGLIIVWNVETKDCMERVKHEKGYAICGLAWHPTCGRISYTDAEGNLGLLENVCDPSGKTSSSKVSSRVEKDYNDLFDGDDMSNAGDFLNDNAVEIPSFSKGIINDDEDDEDLMMASGRPRQRSHILEDDENSVDISMLKTGSSLLKEEEEDGQEGSIHNLPLVTSQRPFYDGPMPTPRQKPFQSGSTPLHLTHRFMVWNSIGIIRCYNDEQDNAIDVEFHDTSIHHATHLSNTLNYTIADLSHEAILLACESTDELASKLHCLHFSSWDSSKEWIIDLPQNEDIEAICLGQGWAAAATSALLLRLFTIGGVQKEVFSLAGPVVSMAGHGEQLFIVYHRGTGFDGDQCLGVQLLELGKKKKQILHGDPLPLTRKSYLAWIGFSAEGTPCYVDSEGIVRMLNRGLGNTWTPICNTREHCKGKSDHYWVVGIHENPQQLRCIPCKGSRFPPTLPRPAVAILSFKLPYCQIATEKGQMEEQFWRSVIFHNHLDYLAKNGYEYEESTKNQATKEQQELLMKMLALSCKLEREFRCVELADLMTQNAVNLAIKYASRSRKLILAQKLSELAVEKAAELTATQVEEEEEEEDFRKKLNAGYSNTATEWSQPRFRNQVEEDAEDSGEADDEEKPEIHKPGQNSFSKSTNSSDVSAKSGAVTFSSQGRVNPFKVSASSKEPAMSMNSARSTNILDNMGKSSKKSTALSRTTNNEKSPIIKPLIPKPKPKQASAASYFQKRNSQTNKTEEVKEENLKNVLSETPAICPPQNTENQRPKTGFQMWLEENRSNILSDNPDFSDEADIIKEGMIRFRVLSTEERKVWANKAKGETASEGTEAKKRKRVVDESDETENQEEKAKENLNLSKKQKPLDFSTNQKLSAFAFKQE
# Molecular target: T1, YFP-tagged DDX11 (human)
# Assay: affinity purification with mass spectrometry; N-terminally YFP-tagged DDX11 captured on GFP-trap_A beads from HeLa Flp-In T-REx extracts, 2 h at 4°C; parental cells as control; eluted with 0.2 M glycine pH 2.5; LC-MS/MS
binder,measurement,value
B1,binding,binds

# These are yes or no findings as the source states them, for the method shown. In cells and extracts the contact can be indirect. A yes stands for co-enrichment or nearness to the bait. Other partners may have been found. Sequences can lack the tags named with a protein.
